{"source": "patent US4110472A", "about": "“Derivatives of 1-(disubstituted phenoxy)-3-amino-2-hydroxypropanes” (Bayer Aktiengesellschaft, priority 1975, dated 1978)", "key": {"cerebral blood flow": {"system": "cerebral blood flow", "assay": "Increase in the cerebral blood flow in cats (133 xenon clearance)", "settings": "peroral, 100 mg/kg"}, "[1]": {"system": "7-minute complete cerebral ischaemia", "assay": "Restricted circulation and mortality after a transient total cerebral ischaemia (experimental apoplexy)", "assay_type": "in vivo", "settings": "cats", "experimental": "3. Restricted circulation and mortality after a transient total cerebral ischaemia (\"experimental apoplexy\")\nA 7-minute complete cerebral ischaemia is caused in curarized cats by inflating a collar placed around the neck.\nFor cats which have not been pre-treated, the 7-minute cerebral ischaemia is fatal, 94% of all the control animals dying within 48 hours."}}, "data": [{"smiles": "C(=C\\c1ccccc1)/CN1CCN(C(c2ccccc2)c2ccccc2)CC1", "note": "[cinnarizin, 1-cinnamyl-4-diphenylmethylpiperazin, reference compound]", "values": [{"measurement": "activity on cerebral blood flow (in words)", "setting": "cerebral blood flow", "value": "inactive"}, {"measurement": "activity in the experimental apoplexy test (in words)", "setting": "[1]", "value": "inactive"}]}]}
